Paper PMC11231140
No constants are given. Whether binding was seen depends on the method and setting. In cells and extracts the contact can be indirect. Some binding calls cover weakened binding; strength is not graded here. Each block holds one molecule with its values, some of them ahead of it.

Sequences of proteins named here, by UniProt entry; tags and fusion partners are left off.
UniProt Q8C147: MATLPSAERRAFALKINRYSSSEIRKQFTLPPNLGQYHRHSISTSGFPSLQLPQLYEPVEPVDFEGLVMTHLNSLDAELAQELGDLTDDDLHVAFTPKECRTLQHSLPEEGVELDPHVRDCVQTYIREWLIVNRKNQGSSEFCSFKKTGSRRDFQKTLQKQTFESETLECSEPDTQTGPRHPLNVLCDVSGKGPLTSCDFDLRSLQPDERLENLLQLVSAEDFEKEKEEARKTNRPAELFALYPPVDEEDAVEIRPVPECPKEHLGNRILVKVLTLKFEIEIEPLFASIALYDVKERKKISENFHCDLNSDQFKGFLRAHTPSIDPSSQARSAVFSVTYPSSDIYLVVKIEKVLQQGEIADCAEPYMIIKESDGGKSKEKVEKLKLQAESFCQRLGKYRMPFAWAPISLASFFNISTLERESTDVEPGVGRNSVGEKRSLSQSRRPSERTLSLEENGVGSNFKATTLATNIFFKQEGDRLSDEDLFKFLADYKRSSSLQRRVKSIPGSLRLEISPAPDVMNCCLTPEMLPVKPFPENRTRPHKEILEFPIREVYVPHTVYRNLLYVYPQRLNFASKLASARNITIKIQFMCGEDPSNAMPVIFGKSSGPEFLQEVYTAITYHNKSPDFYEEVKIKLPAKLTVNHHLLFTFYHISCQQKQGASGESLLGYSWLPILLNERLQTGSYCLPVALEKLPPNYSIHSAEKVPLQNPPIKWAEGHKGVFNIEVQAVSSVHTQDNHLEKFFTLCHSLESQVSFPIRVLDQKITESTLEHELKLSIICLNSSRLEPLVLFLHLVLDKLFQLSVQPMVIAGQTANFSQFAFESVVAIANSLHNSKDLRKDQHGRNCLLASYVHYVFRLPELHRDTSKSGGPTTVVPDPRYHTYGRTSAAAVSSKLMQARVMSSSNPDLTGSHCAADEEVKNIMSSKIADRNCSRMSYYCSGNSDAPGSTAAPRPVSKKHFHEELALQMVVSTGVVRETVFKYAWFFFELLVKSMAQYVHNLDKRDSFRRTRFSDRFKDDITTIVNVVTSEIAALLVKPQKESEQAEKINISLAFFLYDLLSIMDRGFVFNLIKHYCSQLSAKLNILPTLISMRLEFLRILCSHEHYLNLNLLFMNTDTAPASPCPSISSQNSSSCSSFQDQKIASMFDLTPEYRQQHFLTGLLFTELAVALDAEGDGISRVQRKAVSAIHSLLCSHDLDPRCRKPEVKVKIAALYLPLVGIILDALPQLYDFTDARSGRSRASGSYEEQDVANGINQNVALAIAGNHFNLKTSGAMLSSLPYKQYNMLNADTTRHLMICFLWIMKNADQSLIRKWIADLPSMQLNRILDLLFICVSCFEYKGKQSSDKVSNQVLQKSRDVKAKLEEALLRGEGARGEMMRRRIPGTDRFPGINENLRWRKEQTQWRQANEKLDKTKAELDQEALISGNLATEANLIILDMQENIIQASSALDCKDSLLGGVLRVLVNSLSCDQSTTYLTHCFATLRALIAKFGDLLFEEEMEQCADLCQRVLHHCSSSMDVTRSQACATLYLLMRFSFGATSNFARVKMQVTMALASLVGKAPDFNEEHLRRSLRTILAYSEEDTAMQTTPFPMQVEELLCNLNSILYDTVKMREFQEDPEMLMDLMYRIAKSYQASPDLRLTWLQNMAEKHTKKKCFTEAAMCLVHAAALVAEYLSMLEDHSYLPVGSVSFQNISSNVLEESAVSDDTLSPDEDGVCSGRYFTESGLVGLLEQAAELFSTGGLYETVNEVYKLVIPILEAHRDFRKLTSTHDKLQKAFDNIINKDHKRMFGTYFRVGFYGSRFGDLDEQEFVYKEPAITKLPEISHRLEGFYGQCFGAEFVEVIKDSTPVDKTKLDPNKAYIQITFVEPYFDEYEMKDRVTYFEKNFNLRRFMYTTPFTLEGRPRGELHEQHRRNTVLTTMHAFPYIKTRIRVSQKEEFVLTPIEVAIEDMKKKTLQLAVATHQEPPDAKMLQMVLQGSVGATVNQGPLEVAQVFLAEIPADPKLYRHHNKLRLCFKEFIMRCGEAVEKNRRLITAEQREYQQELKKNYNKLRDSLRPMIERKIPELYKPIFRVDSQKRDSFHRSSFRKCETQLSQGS
UniProt P60766: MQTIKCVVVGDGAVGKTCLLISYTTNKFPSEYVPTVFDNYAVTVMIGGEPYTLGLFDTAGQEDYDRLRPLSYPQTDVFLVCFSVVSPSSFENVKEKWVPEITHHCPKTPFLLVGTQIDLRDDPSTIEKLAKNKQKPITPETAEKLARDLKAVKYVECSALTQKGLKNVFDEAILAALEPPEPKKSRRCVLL

Tests used:
[1] = target: Dedicator of cytokinesis 8 (DOCK8) (mouse (endogenous in MH-S)) (UniProt Q8C147); assay: co-IP; MH-S cells with circCDC42-OE plasmid or empty vector, or circCDC42 siRNA or siNC, infected with KP; CDC42 and CDC42-165aa bound to DOCK8; precipitating antibody not stated
[2] = target: T1, ASC (mouse (endogenous in MH-S)) (UniProt Q9EPB4); assay: co-IP; MH-S cells with empty vector or circCDC42-OE plasmid for 24 h, then KP at MOI 20:1 for 4 h; co-immunoprecipitation with the anti-Pyrin and ASC antibodies, respectively
T1 sequence: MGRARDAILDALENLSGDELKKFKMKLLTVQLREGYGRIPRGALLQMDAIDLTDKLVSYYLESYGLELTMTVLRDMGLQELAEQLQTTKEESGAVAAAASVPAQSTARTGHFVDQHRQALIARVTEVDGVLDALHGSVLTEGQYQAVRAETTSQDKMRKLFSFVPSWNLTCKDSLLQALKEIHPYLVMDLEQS

binding [1]: binds
Molecule: Cell division cycle 42 (CDC42) (from UniProt P60766 1-191)

binding [2]: binds
B1: Pyrin (protein, UniProt Q9JJ26 1-767)
chain: MAKTLGDHLLNTLEELLPYDFEKFKFKLQNTSLEKGHSKIPRGHMQMARPVKLASLLITYYGEEYAVRLTLQILRATNQRQLAEELRKATGTEHLIEENRVGGSVQSSVENKAKSVKVPDVPEGDGTQQNNDESDTLPSSQAEVGKGPQKKSLTKRKDQRGPESLDSQTKPWTRSTAPLYRRTQGTQSPGDKESTASAQLRRNVSSAGRLQGLYNNAPGRRESKKAEVYVYLPSGKKRPRSLEITTYSREGEPPNSEVLPTQEETRNGSLIRMRTATLNGRTTGALEKGTGIPEHSMVLDEKTFRNMSSKTSLIGEERCPTSWTENGNGSPETTESSGETAGSILSDPEVPLSLCEKPAKTPEDPASLGQAACEGRSQDKAVCPLCHTQEGDLRGDTCVQSSCSCSIAPGDPKASGRCSICFQCQGLLARKSCEAQSPQSLPQCPRHMKQVLLLFCEDHREPICLICRLSLEHQGHRVRPIEEAALEYKEQIREQLERLREMRGYVEEHRLQGDKKTDDFLKQTEIQKQKISCPLEKLYQLLEKQEQLFVTWLQELSQTISKVRETYYTRVSLLDEMIEELEAKQDQPEWDLMQDIGITLHRAKMMSASELLDTPPGVKEKLHLLYQKSKSVEKNMQCFSEMLSSEMAFSASDVAKWEGRQPSATQVQGLVPTVHLKCDGAHTQDCDVVFYPEREAGGSEPKDYLHPQPAQDTPELHEIHSRNNKRKFKSFLKWKPSFSRTDWRLRTCCYRDLDQAAAHPNLIFSMI
